# Results reported in US20110200622A1 (SAMSUNG ELECTRONICS, published 2011).
# The chains behind the UniProt entries cited, without tags or fusion partners. Where a name states a change or a piece, a line headed by the entry shows the natural chain unless it says otherwise. A line that says so, or that is headed by a name, gives the form on record, which may keep a tag or linker.
# human VEGF (R&D systems, Inc.; catalog #293-VE) (P15692, form named): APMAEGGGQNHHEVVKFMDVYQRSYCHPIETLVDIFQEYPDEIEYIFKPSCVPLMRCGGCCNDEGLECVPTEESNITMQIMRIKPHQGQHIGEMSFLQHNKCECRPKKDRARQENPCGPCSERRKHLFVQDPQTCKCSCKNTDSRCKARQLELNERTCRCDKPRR
# No constants are given. Whether binding was seen depends on the method and setting. Some results given as binding are weak or reduced against the parent protein; the word gives no strength.
# Target: human VEGF (R&D systems, Inc.; catalog #293-VE) (human) (UniProt P15692)
# Assay: phage ELISA on plate-immobilised human VEGF, anti-M13-HRP, OD450
binder,measurement,value
"DRFTMWDSQS (peptide, not shown: large carriers) [polypeptide clone number 80, displayed on phage]",binding,binds
